Test results: paper PMC9066215
These are yes or no findings as the source states them, for the method shown. In cells and extracts the contact can be indirect. Some binding calls cover weakened binding; strength is not graded here.

The chains behind the UniProt entries cited, without tags or fusion partners.
UniProt P06493: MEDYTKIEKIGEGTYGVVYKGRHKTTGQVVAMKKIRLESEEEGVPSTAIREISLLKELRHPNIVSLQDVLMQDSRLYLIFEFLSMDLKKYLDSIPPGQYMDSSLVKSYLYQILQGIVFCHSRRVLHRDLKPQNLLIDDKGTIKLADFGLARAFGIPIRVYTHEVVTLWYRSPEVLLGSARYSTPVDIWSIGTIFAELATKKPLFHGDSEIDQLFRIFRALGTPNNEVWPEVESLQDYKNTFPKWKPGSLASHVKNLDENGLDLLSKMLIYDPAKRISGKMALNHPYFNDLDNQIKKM

Target: CDK1 (human) (UniProt P06493)
Test: co-IP; cells lysed in ice-cold IP lysate; 1.2 mg total protein incubated with antibody overnight, then with 20 uL beads for 1-2 h at 4°C; Western blot; the precipitating antibody and the cell line are not stated

binding: binds
B1: cell division cycle associated 8 (CDCA8) (protein, UniProt Q53HL2 1-280)
chain: MAPRKGSSRVAKTNSLRRRKLASFLKDFDREVEIRIKQIESDRQNLLKEVDNLYNIEILRLPKALREMNWLDYFALGGNKQALEEAATADLDITEINKLTAEAIQTPLKSAKTRKVIQVDEMIVEEEEEEENERKNLQTARVKRCPPSKKRTQSIQGKGKGKRSSRANTVTPAVGRLEVSMVKPTPGLTPRFDSRVFKTPGLRTPAAGERIYNISGNGSPLADSKEIFLTVPVGGGESLRLLASDLQRHSIAQLDPEALGNIKKLSNRLAQICSSIRTHK
